In the supplement of paper PMC10849652:
Some of the results follow.

Chains of the proteins cited; added tags and fusions are not shown. Lines headed by an entry give the natural chain unless they say otherwise; changes in a name come on top.
UniProt Q9Y6J9: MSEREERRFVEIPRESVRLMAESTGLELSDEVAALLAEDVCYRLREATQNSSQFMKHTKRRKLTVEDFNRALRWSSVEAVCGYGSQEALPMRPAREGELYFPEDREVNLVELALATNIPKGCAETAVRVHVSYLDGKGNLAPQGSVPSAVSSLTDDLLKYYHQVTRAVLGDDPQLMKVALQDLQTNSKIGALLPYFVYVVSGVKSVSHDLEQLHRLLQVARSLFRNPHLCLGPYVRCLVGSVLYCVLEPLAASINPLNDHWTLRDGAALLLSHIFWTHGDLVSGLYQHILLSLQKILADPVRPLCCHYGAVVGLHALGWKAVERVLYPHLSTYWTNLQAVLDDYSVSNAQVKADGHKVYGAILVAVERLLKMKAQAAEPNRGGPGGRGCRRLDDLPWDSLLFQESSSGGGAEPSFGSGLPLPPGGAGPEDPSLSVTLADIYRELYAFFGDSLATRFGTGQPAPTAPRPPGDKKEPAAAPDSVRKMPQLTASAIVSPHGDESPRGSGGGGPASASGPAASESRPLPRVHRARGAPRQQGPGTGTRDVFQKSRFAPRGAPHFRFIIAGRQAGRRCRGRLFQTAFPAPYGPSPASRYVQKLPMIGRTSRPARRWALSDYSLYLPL
UniProt Q99081: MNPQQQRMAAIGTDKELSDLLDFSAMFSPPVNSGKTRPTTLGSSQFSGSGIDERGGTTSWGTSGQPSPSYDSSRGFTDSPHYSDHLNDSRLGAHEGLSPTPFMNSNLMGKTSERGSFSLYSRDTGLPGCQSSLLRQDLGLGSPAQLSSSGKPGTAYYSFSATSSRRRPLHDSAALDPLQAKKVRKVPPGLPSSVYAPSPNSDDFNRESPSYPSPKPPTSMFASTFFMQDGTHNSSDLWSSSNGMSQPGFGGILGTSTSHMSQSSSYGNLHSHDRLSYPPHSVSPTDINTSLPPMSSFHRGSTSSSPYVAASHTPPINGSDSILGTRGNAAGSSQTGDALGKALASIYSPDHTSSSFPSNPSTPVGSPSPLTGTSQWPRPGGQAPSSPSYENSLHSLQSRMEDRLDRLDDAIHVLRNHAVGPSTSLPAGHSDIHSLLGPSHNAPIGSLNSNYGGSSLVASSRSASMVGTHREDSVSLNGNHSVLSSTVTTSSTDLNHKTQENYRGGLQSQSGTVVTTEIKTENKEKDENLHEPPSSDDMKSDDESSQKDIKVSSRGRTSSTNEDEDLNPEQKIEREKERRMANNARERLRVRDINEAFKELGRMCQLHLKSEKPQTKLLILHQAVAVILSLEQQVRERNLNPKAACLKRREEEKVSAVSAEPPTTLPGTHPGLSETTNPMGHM
UniProt P02787, whole entry, looked up: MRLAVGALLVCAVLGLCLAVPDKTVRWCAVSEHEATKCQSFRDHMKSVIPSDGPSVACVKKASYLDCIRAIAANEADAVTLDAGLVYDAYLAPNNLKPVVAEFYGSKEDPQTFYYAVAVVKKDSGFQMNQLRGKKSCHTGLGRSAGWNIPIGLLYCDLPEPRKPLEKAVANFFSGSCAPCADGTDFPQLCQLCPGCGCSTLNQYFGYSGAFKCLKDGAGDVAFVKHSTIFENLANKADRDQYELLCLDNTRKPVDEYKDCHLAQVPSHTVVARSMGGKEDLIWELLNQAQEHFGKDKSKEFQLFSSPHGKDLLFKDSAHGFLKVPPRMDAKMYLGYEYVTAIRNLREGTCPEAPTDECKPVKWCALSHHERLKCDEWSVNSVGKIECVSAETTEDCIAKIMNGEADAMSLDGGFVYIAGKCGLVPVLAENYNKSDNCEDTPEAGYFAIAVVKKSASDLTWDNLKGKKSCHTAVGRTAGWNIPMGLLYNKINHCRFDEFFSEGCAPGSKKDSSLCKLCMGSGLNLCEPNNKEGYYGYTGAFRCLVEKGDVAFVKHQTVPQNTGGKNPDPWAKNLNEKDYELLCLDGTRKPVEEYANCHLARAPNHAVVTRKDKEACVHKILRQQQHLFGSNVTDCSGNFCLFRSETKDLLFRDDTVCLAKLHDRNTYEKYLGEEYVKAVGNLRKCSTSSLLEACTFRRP
UniProt Q9Y4C2: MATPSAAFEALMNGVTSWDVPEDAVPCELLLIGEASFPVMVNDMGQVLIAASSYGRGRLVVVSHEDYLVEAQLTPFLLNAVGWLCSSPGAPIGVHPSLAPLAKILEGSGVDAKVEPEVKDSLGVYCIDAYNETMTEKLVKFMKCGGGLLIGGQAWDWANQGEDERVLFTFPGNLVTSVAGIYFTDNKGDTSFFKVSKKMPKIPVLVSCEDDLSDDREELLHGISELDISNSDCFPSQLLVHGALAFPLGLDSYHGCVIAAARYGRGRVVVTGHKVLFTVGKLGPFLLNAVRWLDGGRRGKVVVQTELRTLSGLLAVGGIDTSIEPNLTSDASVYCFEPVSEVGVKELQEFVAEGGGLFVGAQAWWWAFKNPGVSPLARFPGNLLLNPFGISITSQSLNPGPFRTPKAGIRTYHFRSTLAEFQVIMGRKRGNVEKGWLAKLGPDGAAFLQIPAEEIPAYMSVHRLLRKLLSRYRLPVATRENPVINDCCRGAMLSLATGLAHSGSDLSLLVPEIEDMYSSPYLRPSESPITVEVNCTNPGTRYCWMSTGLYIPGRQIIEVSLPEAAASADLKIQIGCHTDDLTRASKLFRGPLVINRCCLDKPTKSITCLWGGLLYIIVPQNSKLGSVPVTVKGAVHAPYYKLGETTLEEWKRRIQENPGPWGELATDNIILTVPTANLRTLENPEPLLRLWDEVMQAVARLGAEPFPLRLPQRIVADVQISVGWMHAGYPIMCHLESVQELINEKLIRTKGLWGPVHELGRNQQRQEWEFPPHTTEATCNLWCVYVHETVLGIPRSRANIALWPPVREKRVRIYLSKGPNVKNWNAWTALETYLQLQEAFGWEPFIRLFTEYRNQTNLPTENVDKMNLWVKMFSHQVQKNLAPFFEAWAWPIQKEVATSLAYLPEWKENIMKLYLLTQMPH
UniProt O95551: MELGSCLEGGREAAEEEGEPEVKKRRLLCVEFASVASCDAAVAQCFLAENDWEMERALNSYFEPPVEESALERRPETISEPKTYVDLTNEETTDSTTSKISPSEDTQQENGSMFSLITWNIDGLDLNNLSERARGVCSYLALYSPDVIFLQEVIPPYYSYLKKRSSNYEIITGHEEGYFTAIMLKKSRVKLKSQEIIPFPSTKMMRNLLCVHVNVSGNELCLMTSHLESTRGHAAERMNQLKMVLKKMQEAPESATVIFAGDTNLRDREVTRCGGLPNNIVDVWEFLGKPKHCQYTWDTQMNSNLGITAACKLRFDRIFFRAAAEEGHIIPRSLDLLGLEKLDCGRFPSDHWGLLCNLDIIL
UniProt Q86VP1, whole entry, looked up: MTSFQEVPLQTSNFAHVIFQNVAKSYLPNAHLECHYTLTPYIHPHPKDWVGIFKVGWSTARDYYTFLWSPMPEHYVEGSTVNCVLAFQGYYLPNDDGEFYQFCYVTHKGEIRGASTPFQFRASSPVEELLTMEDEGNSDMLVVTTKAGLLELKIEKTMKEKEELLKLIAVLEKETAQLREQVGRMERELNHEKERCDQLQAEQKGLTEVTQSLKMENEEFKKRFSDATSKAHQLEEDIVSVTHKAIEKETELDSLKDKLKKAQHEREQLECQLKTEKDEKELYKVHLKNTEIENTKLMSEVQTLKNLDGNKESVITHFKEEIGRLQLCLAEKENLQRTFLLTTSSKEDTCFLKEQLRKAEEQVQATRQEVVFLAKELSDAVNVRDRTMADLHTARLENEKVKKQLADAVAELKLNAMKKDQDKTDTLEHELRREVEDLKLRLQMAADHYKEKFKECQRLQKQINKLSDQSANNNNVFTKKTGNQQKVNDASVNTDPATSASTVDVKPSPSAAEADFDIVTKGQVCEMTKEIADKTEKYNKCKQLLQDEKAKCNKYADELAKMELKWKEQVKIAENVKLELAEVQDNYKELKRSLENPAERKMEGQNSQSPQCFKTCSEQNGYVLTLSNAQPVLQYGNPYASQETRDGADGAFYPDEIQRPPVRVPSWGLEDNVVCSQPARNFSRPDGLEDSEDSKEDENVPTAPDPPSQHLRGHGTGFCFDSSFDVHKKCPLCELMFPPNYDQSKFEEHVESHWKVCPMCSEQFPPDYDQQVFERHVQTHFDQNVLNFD
UniProt Q13488, whole entry, looked up: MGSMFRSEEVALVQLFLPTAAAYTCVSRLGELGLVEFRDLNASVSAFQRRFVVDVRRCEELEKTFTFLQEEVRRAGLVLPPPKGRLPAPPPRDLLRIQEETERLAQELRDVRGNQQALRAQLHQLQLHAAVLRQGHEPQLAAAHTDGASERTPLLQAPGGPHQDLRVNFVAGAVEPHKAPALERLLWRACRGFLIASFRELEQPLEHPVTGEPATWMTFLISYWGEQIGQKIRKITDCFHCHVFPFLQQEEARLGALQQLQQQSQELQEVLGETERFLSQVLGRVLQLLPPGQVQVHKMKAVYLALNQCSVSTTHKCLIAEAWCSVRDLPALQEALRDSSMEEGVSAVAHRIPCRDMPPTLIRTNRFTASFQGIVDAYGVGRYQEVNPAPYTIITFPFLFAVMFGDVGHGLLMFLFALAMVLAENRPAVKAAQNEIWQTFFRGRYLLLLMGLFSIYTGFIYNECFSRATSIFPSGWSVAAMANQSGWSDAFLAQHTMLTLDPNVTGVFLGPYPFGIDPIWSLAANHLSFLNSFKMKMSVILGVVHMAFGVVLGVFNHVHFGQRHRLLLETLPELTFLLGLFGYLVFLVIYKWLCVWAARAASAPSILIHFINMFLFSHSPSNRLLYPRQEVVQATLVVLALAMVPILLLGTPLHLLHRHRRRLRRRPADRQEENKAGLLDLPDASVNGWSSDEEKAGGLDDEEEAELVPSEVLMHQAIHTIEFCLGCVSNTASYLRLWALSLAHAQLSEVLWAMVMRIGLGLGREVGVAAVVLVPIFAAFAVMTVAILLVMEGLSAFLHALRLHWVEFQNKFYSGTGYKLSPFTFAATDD
UniProt Q8WUA7: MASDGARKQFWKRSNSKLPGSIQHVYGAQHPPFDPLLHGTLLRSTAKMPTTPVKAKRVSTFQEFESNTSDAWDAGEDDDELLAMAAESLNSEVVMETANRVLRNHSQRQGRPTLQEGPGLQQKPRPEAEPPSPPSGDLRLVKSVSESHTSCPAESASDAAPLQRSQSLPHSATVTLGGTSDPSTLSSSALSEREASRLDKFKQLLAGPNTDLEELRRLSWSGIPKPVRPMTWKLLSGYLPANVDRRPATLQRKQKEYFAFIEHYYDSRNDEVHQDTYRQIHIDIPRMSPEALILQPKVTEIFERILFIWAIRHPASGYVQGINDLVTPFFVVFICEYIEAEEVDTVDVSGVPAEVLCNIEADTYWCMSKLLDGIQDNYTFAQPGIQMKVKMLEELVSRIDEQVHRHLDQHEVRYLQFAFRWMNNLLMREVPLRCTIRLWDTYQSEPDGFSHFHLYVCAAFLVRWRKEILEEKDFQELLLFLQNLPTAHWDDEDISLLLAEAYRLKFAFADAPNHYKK
UniProt Q0IIM8: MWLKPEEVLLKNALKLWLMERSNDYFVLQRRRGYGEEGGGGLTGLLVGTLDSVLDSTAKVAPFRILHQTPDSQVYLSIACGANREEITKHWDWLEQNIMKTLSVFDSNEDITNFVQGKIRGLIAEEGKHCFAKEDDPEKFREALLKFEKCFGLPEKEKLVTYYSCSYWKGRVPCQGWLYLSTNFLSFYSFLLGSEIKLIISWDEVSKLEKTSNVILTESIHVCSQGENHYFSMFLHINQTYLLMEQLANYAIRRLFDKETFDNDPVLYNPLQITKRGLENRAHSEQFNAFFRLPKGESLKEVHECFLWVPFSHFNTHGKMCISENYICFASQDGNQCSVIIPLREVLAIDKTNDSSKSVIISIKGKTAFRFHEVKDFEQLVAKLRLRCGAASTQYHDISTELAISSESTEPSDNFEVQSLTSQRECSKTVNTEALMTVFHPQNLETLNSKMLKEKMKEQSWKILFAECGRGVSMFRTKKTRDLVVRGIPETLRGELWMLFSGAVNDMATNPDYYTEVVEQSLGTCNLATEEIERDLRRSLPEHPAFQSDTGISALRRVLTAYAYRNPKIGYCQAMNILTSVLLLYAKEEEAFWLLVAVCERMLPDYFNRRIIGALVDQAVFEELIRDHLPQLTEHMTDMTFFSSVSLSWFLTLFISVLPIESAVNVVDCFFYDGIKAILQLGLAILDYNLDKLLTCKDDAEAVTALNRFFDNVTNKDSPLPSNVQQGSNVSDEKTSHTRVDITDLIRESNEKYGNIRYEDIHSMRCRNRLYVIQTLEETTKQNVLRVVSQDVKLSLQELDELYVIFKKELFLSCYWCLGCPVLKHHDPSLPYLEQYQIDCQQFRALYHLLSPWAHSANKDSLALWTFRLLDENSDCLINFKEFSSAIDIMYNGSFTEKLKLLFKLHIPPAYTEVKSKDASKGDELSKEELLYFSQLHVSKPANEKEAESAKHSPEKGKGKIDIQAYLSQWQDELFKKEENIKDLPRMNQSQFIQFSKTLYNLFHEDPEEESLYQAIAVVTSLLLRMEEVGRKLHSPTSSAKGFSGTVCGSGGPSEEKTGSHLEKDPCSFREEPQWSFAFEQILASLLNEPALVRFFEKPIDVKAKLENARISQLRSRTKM

What was measured:
Experiment in all cases: log2 fold change, soluble protein after heating vs DMSO (PISA); higher = thermal stabilisation; K562 lysate, 10 uM; active = over 0.2 and 3.5 SD of the protein, either way, in both replicates (recomputed)
vemurafenib = compound: CCCS(=O)(=O)Nc1ccc(F)c(C(=O)c2c[nH]c3ncc(-c4ccc(Cl)cc4)cc23)c1F [vemurafenib]
In short: (§1)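 A 30 min treatment with 10 μM compound was applied to crude K562 extract at 1 mg/mL protein in PBS pH 7.4 with 1 mM MgCl2. Heating for 3 min spanned 48°C-58°C, after which aliquots were pooled, adjusted to 0.5% NP-40 at 4°C and spun at 21,000xg for 90 min. TMTpro 16plex LC-MS/MS of the supernatant, with channel sums equalised, gave values recorded as log-two fold change in thermal stability against solvent controls, from duplicates.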

[1] = compound: CCCS(=O)(=O)Nc1ccc(F)c(C(=O)c2c[nH]c3ncc(Cl)cc23)c1F
In short: as §1

barasertib = compound: CCN(CCCOc1ccc2c(Nc3cc(CC(=O)Nc4cccc(F)c4)[nH]n3)ncnc2c1)CCOP(=O)(O)O [barasertib]
In short: as §1

[2] = compound: CC[C@@H]1C(=O)N(C)c2cnc(Nc3ccc(C(=O)NC4CCN(C)CC4)cc3OC)nc2N1C1CCCC1
In short: as §1

volasertib = compound: CC[C@@H]1C(=O)N(C)c2cnc(Nc3ccc(C(=O)N[C@H]4CC[C@H](N5CCN(CC6CC6)CC5)CC4)cc3OC)nc2N1C(C)C [volasertib]
In short: as §1

[3] = compound: CCn1c(C(=O)N(C2CC2)C2CC2)cc2c3c(ncn3C)c(Nc3cc(C)n(C)n3)nc21
In short: as §1

[4] = compound: CCn1cc(-c2ccnc3[nH]c(-c4cccc(CN(C)C)c4)cc23)c(-c2ccc(NC(=O)N(C)C)cc2)n1
In short: as §1

[5] = compound: CN1CCC(CNc2ccc3ncc(-c4cccc(OC(F)(F)F)c4)n3n2)CC1
In short: as §1

saracatinib = compound: CN1CCN(CCOc2cc(OC3CCOCC3)c3c(Nc4c(Cl)ccc5c4OCO5)ncnc3c2)CC1 [saracatinib]
In short: as §1

sotrastaurin = compound: CN1CCN(c2nc(C3=C(c4c[nH]c5ccccc45)C(=O)NC3=O)c3ccccc3n2)CC1 [sotrastaurin]
In short: as §1

alvocidib = compound: CN1CC[C@H](c2c(O)cc(O)c3c(=O)cc(-c4ccccc4Cl)oc23)[C@H](O)C1 [alvocidib]
In short: as §1

Tubastatin A = compound: CN1CCc2c(c3ccccc3n2Cc2ccc(C(=O)NO)cc2)C1 [Tubastatin A]
In short: as §1

[6] = compound: CNC(=O)C1=CC=CC=C1NC2=NC(=NC=C2Cl)NC3=C(C=C(C=C3)N4CCOCC4)OC
In short: as §1

defactinib = compound: CNC(=O)c1ccc(Nc2ncc(C(F)(F)F)c(NCc3nccnc3N(C)S(C)(=O)=O)n2)cc1 [defactinib]
In short: as §1

[7] = compound: CNc1nc(-c2ccc3c(N)n[nH]c3c2)cc(N2C[C@@H](C(=O)NC3CCCCC3)CC[C@H]2C)n1
In short: as §1

encorafenib = compound: COC(=O)N[C@@H](C)CNc1nccc(-c2cn(C(C)C)nc2-c2cc(Cl)cc(NS(C)(=O)=O)c2F)n1 [encorafenib]
In short: as §1

[8] = compound: COC(=O)[C@H](CCSC)NC(=O)C1=C(C=C(C=C1)NC[C@H](CS)N)C2=CC=CC=C2
In short: as §1

alisertib = compound: COc1cc(Nc2ncc3c(n2)-c2ccc(Cl)cc2C(c2c(F)cccc2OC)=NC3)ccc1C(=O)O [alisertib]
In short: as §1

[9] = compound: COc1cc2nc(-c3cc(F)ccc3O)nc(N[C@@H]3CNC[C@H]3C(C)(C)O)c2cc1OC
In short: as §1

gefitinib = compound: COc1cc2ncnc(Nc3ccc(F)c(Cl)c3)c2cc1OCCCN1CCOCC1 [gefitinib]
In short: as §1

| Target | log2 fold change (vemurafenib) | log2 fold change [1] | log2 fold change (barasertib) | log2 fold change [2] | log2 fold change (volasertib) | log2 fold change [3] | log2 fold change [4] | log2 fold change [5] | log2 fold change (saracatinib) | log2 fold change (sotrastaurin) | log2 fold change (alvocidib) | log2 fold change (Tubastatin A) | log2 fold change [6] | log2 fold change (defactinib) | log2 fold change [7] | log2 fold change (encorafenib) | log2 fold change [8] | log2 fold change (alisertib) | log2 fold change [9] | log2 fold change (gefitinib) |
| --- | --- | --- | --- | --- | --- | --- | --- | --- | --- | --- | --- | --- | --- | --- | --- | --- | --- | --- | --- | --- |
| TES (UniProt Q9UGI8) | inactive: -0.006 | inactive: -0.007 | inactive: -0.007 | inactive: 0.047 | inactive: 0.018 | inactive: -0.004 | inactive: -0.005 | inactive: 0.026 | inactive: -0.013 | inactive: -0.052 | inactive: -0.043 | inactive: 0.035 | inactive: -0.003 | inactive: -0.045 | inactive: 0.018 | inactive: -0.014 | inactive: -0.043 | inactive: 0 | inactive: 0 | inactive: -0.029 |
| TAF6L (UniProt Q9Y6J9) | inactive: -0.029 | inactive: 0.035 | inactive: -0.05 | active: -0.245 | inactive: -0.007 | inactive: -0.015 | inactive: 0.018 | inactive: 0.022 | inactive: 0.029 | inactive: 0.05 | inactive: 0.018 | inactive: -0.109 | inactive: -0.035 | inactive: 0.001 | inactive: -0.116 | inactive: 0.096 | inactive: -0.051 | inactive: 0.006 | inactive: 0.006 | inactive: -0.046 |
| TBL2 (UniProt Q9Y4P3) | inactive: -0.016 | inactive: -0.013 | inactive: -0.015 | inactive: -0.029 | inactive: -0.034 | inactive: -0.045 | inactive: -0.029 | inactive: 0.022 | inactive: 0.027 | inactive: 0.001 | inactive: 0.018 | inactive: -0.007 | inactive: 0.023 | inactive: 0.039 | inactive: -0.003 | inactive: 0.057 | inactive: -0.036 | inactive: 0.008 | inactive: 0.055 | inactive: -0.018 |
| TCF12 isoform 3 (UniProt Q99081) | inactive: 0.008 | inactive: -0.068 | inactive: -0.037 | inactive: 0.034 | inactive: -0.094 | inactive: 0.017 | inactive: -0.04 | inactive: 0.079 | inactive: 0.043 | inactive: -0.054 | inactive: -0.045 | inactive: -0.129 | inactive: 0.009 | inactive: -0.007 | inactive: -0.013 | inactive: 0.039 | inactive: -0.043 | inactive: 0.004 | inactive: -0.025 | inactive: 0.028 |
| TF (UniProt P02787) | inactive: 0.055 | inactive: -0.037 | inactive: -0.04 | inactive: 0.065 | inactive: 0.041 | inactive: 0.004 | inactive: -0.128 | inactive: 0.095 | inactive: -0.105 | inactive: 0.114 | inactive: 0.024 | inactive: 0.043 | inactive: 0.035 | inactive: -0.029 | inactive: 0.012 | inactive: -0.067 | inactive: 0.066 | inactive: 0.011 | inactive: -0.005 | inactive: 0.251 |
| TCAF1 (UniProt Q9Y4C2) | inactive: 0.016 | inactive: 0.05 | inactive: 0.036 | inactive: 0.009 | inactive: -0.049 | inactive: 0.003 | inactive: 0.097 | inactive: -0.077 | inactive: 0.056 | inactive: 0.011 | inactive: -0.004 | inactive: -0.084 | inactive: 0.009 | inactive: 0.016 | inactive: -0.066 | inactive: 0.011 | inactive: 0.126 | inactive: 0.009 | inactive: -0.002 | inactive: -0.008 |
| TAL1 (UniProt P17542) | inactive: 0.016 | inactive: -0.055 | inactive: 0.023 | inactive: 0.115 | inactive: 0.028 | inactive: 0.102 | inactive: -0.007 | inactive: 0.035 | inactive: 0.029 | inactive: -0.005 | inactive: -0.013 | inactive: -0.006 | inactive: -0.02 | inactive: -0.023 | inactive: -0.023 | inactive: 0.051 | inactive: -0.079 | inactive: 0.08 | inactive: 0.035 | inactive: 0.031 |
| TAOK3 (UniProt Q9H2K8) | inactive: -0.021 | inactive: -0.039 | inactive: 0 | inactive: 0.035 | inactive: -0.042 | inactive: 0.029 | inactive: 0.093 | inactive: -0.113 | inactive: 0.001 | inactive: 0.031 | inactive: 0.116 | inactive: 0.006 | inactive: 0.099 | inactive: -0.016 | inactive: -0.001 | inactive: -0.05 | inactive: -0.002 | inactive: -0.026 | inactive: 0.015 | inactive: 0.01 |
| TDP2 isoform 2 (UniProt O95551) | inactive: 0.014 | inactive: 0.022 | inactive: -0.035 | inactive: -0.046 | inactive: -0.004 | inactive: 0.013 | inactive: -0.015 | inactive: 0.016 | inactive: 0.025 | inactive: -0.005 | inactive: 0.001 | inactive: 0.063 | inactive: 0.01 | inactive: -0.024 | inactive: -0.045 | inactive: 0.058 | inactive: -0.014 | inactive: 0.03 | inactive: 0.026 | inactive: 0.006 |
| TAX1BP1 (UniProt Q86VP1) | inactive: 0.028 | inactive: 0.006 | inactive: 0.041 | inactive: 0.05 | inactive: 0.001 | inactive: -0.005 | inactive: -0.009 | inactive: -0.004 | inactive: 0.01 | inactive: 0.023 | inactive: -0.005 | inactive: -0.025 | inactive: 0.002 | inactive: -0.002 | inactive: -0.04 | inactive: -0.01 | inactive: -0.053 | inactive: 0.011 | inactive: -0.035 | inactive: 0.033 |
| TARDBP (UniProt Q13148) | inactive: 0.027 | inactive: 0.016 | inactive: 0.151 | inactive: 0.007 | inactive: -0.125 | inactive: 0.169 | inactive: -0.008 | inactive: -0.069 | inactive: 0.058 | inactive: -0.032 | inactive: -0.006 | active: -0.318 | inactive: -0.044 | inactive: 0 | inactive: -0.139 | inactive: 0.181 | inactive: 0.137 | inactive: 0.012 | inactive: -0.004 | inactive: 0.06 |
| TBC1D13 (UniProt Q9NVG8) | inactive: -0.016 | inactive: -0.003 | inactive: 0.052 | inactive: 0.04 | inactive: 0.013 | inactive: 0.011 | inactive: -0.071 | inactive: 0.024 | inactive: 0.017 | inactive: -0.004 | inactive: -0.001 | inactive: -0.006 | inactive: 0.001 | inactive: 0 | inactive: 0.023 | inactive: 0.001 | inactive: -0.018 | inactive: 0.015 | inactive: 0.014 | inactive: 0.046 |
| TCIRG1 (UniProt Q13488) | inactive: -0.004 | inactive: -0.045 | inactive: 0.071 | inactive: -0.059 | inactive: 0.041 | inactive: 0.088 | inactive: -0.027 | inactive: 0.048 | inactive: 0.087 | inactive: 0.02 | inactive: -0.01 | inactive: 0.026 | inactive: 0.017 | inactive: 0.086 | inactive: 0.02 | inactive: 0.103 | inactive: -0.004 | inactive: -0.043 | inactive: 0.037 | inactive: 0.122 |
| TBC1D22A (UniProt Q8WUA7) | inactive: -0.051 | inactive: 0.028 | inactive: 0.045 | inactive: -0.016 | inactive: 0.043 | inactive: -0.002 | inactive: 0.007 | inactive: 0.082 | inactive: -0.006 | inactive: 0.014 | inactive: -0.103 | inactive: 0.023 | inactive: -0.022 | inactive: 0.045 | inactive: 0.053 | inactive: 0.081 | inactive: -0.047 | inactive: 0.002 | inactive: -0.011 | inactive: 0.063 |
| TARBP1 (UniProt Q13395) | inactive: 0.019 | inactive: -0.004 | inactive: 0.02 | inactive: 0.025 | inactive: -0.032 | inactive: -0.047 | inactive: -0.053 | inactive: -0.034 | inactive: -0.055 | inactive: 0.038 | inactive: 0.009 | inactive: -0.118 | inactive: -0.066 | inactive: -0.034 | inactive: 0.047 | inactive: 0.073 | inactive: -0.236 | inactive: 0.018 | inactive: -0.004 | inactive: 0.011 |
| TBC1D8B (UniProt Q0IIM8) | inactive: -0.007 | inactive: -0.025 | inactive: 0.108 | inactive: 0.096 | inactive: 0.072 | inactive: -0.024 | active: -0.308 | inactive: 0.192 | inactive: -0.047 | inactive: -0.042 | inactive: -0.134 | inactive: 0.051 | inactive: -0.017 | inactive: -0.057 | inactive: 0.078 | inactive: -0.032 | inactive: 0.033 | inactive: 0.11 | inactive: 0.026 | inactive: 0.008 |

Part of the list above, limited to log2 fold change [4] and log2 fold change (alisertib):
Target	log2 fold change [4]	log2 fold change (alisertib)
TBC1D22A (UniProt Q8WUA7)	inactive: 0.007	inactive: 0.002
TARBP1 (UniProt Q13395)	inactive: -0.053	inactive: 0.018
